# Source: US6358966B2, “Treatment of depression” (H. Lundbeck A/S, priority 1998, dated 2002)
# At least one compound was matched to its structure with a doubt left.
# Test system: chronic mild stress induced anhedonia in rats
# Experiment: chronic mild stress induced anhedonia in rats (sucrose consumption)
# Format: in vivo, Male Wistar rats
# Settings: 10 mg/kg daily i.p.
# Excerpt: The model of chronic mild stress induced anhedonia in rats. […] This model is based on the observation that chronic mild stress causes a gradual decrease in sensitivity to rewards, for example consumption of sucrose, and that this decrease is dose-dependently reversed by chronic treatment with antidepressants. The method has previously been described and more information with respect to the test appears from Willner, Paul, Psycopharmacology, 1997, 134, 319-329. Male Wistar rats were trained to consume a 1% sucrose solution by nine 1-hour baseline tests in which sucrose was presented in the home cage following 14 h food and water deprivation. One group of animals was subjected to a chronic mild stress procedure for a period of 9 consecutive weeks. Each week of the stress regime consisted of two periods of food and water deprivation, two periods of 45-degree cage tilt, two periods of intermittent illumination (light on and off every 2 h), two periods of soiled cage (250 ml water saw dust bedding), two periods of paired housing, two periods of low stroboscobic illumination (150 flashes/min) and two periods of no stress. All stress periods were of 12-14 hours duration and followed continuously, day and night. Control animals were housed in separate rooms with food and water freely available except for a 14-h period preceding each sucrose test, and they had no contact with stressed animals. Stressed animals as well as control animals were divided into matched subgroups, and for subsequent five weeks they received daily intraperitoneal injections (1 ml/kg body weight) of vehicle (minimum amount of propylene glycol and methane sulfonic acid (1:1) diluted with water) or test compound. Sucrose tests were carried out 24 hours following to last drug treatment.
structure (smiles),measurement,setting,value
"CN(C)CCCC1(c2ccc(F)cc2)OCc2cc(C#N)ccc21 (stereo not drawn) [Citalopram, reference compound]",consumption of sucrose in the control animals,non-stressed control rats,did not significantly affect
same,reversal of chronic mild stress induced deficit in sucrose,stressed rats,able to reverse
same,sucrose intake in stressed animals versus initial scores,stressed rats,significantly increased from initial scores after two weeks
